PubChem BioAssay AID1259424 | University of Nebraska Medical Center | 2018

Purpose: 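Rank knockdowns across the genome by resemblance to the KSR1 depletion profile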 (primary screen)
Cells: human HCT116 colon cancer cells
Reagents: siRNA pool against human genes, 50 nM
Measurement: 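Six signature mRNAs by branched-DNA multiplex assay, scaled to two housekeeping genes and non-targeting median, log2; matched to mean KSR1 knockdown profile by Pearson correlation and euclidean distance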
Direction: mean correlation with KSR1 profile and KSR1 correlation: higher = expression change more like KSR1 knockdown; mean distance from KSR1 profile: higher = expression change less like KSR1 knockdown
In all, the deposit lists about 14,000 reagents; shown is a part drawn at random. 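Higher correlation or smaller distance means closer resemblance to KSR1 loss; control wells, including KSR1 knockdowns, recur on many plates.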 Not all columns of the deposit are shown. Reagent sequences are not shown. Not given: the time to read-out.

| target gene | mean correlation with KSR1 profile | mean distance from KSR1 profile | KSR1 correlation, replicate 1 | KSR1 correlation, replicate 2 |
| --- | --- | --- | --- | --- |
| PSMB5 (GeneID 5693) | -0.183 | 5.12 | 0.0384 | -0.304 |
| PTGER4 (GeneID 5734) | 0.534 | 1.51 | 0.514 | 0.652 |
| TECTA (GeneID 7007) | -0.238 | 2.05 | -0.222 | -0.635 |
| DOCK1 (GeneID 1793) | 0.0401 | 1.35 | 0.172 | 0.0358 |
| BRD4 (GeneID 23476) | -0.42 | 1.45 | -0.424 | -0.458 |
| RAD51B (GeneID 5890) | -0.415 | 1.54 | -0.521 | -0.669 |
| FBXL21P (GeneID 26223) | 0.436 | 1.54 | 0.437 | 0.229 |
| C19orf48P (GeneID 84798) | 0.247 | 1.84 | 0.186 | 0.102 |
| TRAF7 (GeneID 84231) | 0.789 | 1.92 | 0.699 | 0.739 |
| SLC67A1 (GeneID 5002) | -0.22 | 1.8 | -0.0228 | -0.205 |
| TREM1 (GeneID 54210) | -0.177 | 3.81 | -0.229 | -0.158 |
| TMEM39A (GeneID 55254) | -0.745 | 3.4 | -0.757 | -0.578 |
| CACNA1H (GeneID 8912) | 0.275 | 1.72 | 0.279 | 0.162 |
| MTFR1L (GeneID 56181) | -0.805 | 3.17 | -0.801 | -0.699 |
| MAEA (GeneID 10296) | -0.279 | 1.82 | -0.365 | -0.353 |
| MAP3K11 (GeneID 4296) | -0.43 | 4.52 | -0.219 | -0.393 |
| BRSK1 (GeneID 84446) | -0.0164 | 2.56 | 0.478 | 0.116 |
| IGSF9 (GeneID 57549) | 0.754 | 1.88 | 0.796 | 0.56 |
| TAS2R5 (GeneID 54429) | 0.45 | 2.22 | 0.432 | 0.5 |
| SEMA3A (GeneID 10371) | -0.742 | 2.1 | -0.893 | -0.548 |
| SLC35F6 (GeneID 54978) | -0.674 | 1.83 | -0.389 | -0.581 |
| DRD5 (GeneID 1816) | 0.449 | 2.6 | 0.388 | 0.586 |
| MFGE8 (GeneID 4240) | 0.39 | 1.47 | 0.659 | 0.0446 |
| COL9A3 (GeneID 1299) | -0.154 | 4.38 | -0.112 | -0.134 |
| F2RL3 (GeneID 9002) | 0.649 | 1.32 | 0.519 | 0.478 |
| CNR2 (GeneID 1269) | 0.57 | 1.59 | 0.497 | 0.6 |
| TMF1 (GeneID 7110) | 0.399 | 1.94 | 0.604 | 0.574 |
| GTF2IRD2 (GeneID 84163) | 0.00239 | 3.17 | 0.202 | -0.293 |
| KLF6 (GeneID 1316) | 0.159 | 1.48 | 0.341 | 0.251 |
| HNF1A (GeneID 6927) | 0.799 | 2.13 | 0.693 | 0.762 |
| PUS1 (GeneID 80324) | 0.54 | 1.38 | 0.0402 | 0.556 |
| MSC (GeneID 9242) | 0.16 | 1.63 | 0.276 | 0.411 |
| CDH22 (GeneID 64405) | 0.374 | 1.98 | 0.239 | 0.181 |
| CLCC1 (GeneID 23155) | 0.265 | 1.02 | 0.188 | 0.105 |
| DDX39B (GeneID 7919) | -0.219 | 3 | -0.0326 | -0.232 |
| MED26 (GeneID 9441) | -0.209 | 2.64 | -0.21 | -0.12 |
| MYL3 (GeneID 4634) | -0.652 | 1.76 | -0.0812 | -0.784 |

An excerpt of the results above:
| target gene | mean correlation with KSR1 profile | mean distance from KSR1 profile | KSR1 correlation, replicate 1 | KSR1 correlation, replicate 2 |
| --- | --- | --- | --- | --- |
| KLF6 (GeneID 1316) | 0.159 | 1.48 | 0.341 | 0.251 |
| HNF1A (GeneID 6927) | 0.799 | 2.13 | 0.693 | 0.762 |
| PUS1 (GeneID 80324) | 0.54 | 1.38 | 0.0402 | 0.556 |
| MSC (GeneID 9242) | 0.16 | 1.63 | 0.276 | 0.411 |

The results go on.
| target gene | mean correlation with KSR1 profile | mean distance from KSR1 profile | KSR1 correlation, replicate 1 | KSR1 correlation, replicate 2 |
| --- | --- | --- | --- | --- |
| LAMP5 (GeneID 24141) | -0.347 | 1.48 | -0.26 | -0.469 |
| BTD (GeneID 686) | -0.348 | 1.6 | -0.244 | -0.253 |
| FEZ1 (GeneID 9638) | -0.449 | 2.72 | -0.647 | -0.59 |
| PF4 (GeneID 5196) | -0.625 | 3.28 | -0.433 | -0.637 |
| CD79B (GeneID 974) | -0.102 | 3.18 | -0.0682 | -0.0688 |
| SLC22A4 (GeneID 6583) | 0.546 | 0.805 | 0.373 | 0.54 |
| ACOT8 (GeneID 10005) | 0.0993 | 2.86 | 0.0884 | 0.118 |
| MYCBP2 (GeneID 23077) | -0.159 | 1.8 | 0.0289 | -0.262 |
| TPP2 (GeneID 7174) | 0.193 | 2.93 | 0.385 | 0.121 |
| ZNF12 (GeneID 7559) | -0.0669 | 3.21 | 0.393 | -0.445 |
| SLC38A7 (GeneID 55238) | -0.973 | 2.39 | -0.932 | -0.952 |
| OLIG2 (GeneID 10215) | 0.519 | 1.1 | 0.242 | 0.759 |
| ACTN3 (GeneID 89) | 0.0746 | 2.26 | 0.148 | 0.311 |
| UNC5B (GeneID 219699) | 0.117 | 2.44 | 0.073 | 0.091 |
| PLOD1 (GeneID 5351) | -0.337 | 3.13 | -0.297 | -0.375 |
| NHERF4 (GeneID 79849) | 0.369 | 1.35 | 0.466 | 0.487 |
| CCR2 (GeneID 729230) | 0.722 | 1.14 | 0.533 | 0.794 |
| BSND (GeneID 7809) | 0.0091 | 1.85 | 0.093 | -0.18 |
| PARP12 (GeneID 64761) | 0.0107 | 1.62 | -0.159 | -0.0981 |
| FABP3 (GeneID 2170) | -0.152 | 1.44 | 0.0418 | -0.18 |
| CD1E (GeneID 913) | -0.213 | 2.68 | -0.13 | -0.386 |
| MFF (GeneID 56947) | -0.863 | 2.59 | -0.846 | -0.751 |
| ZNF90 (GeneID 7643) | 0.229 | 2.14 | 0.316 | -0.0257 |
| ALK (GeneID 238) | -0.188 | 1.96 | -0.165 | -0.206 |
| ZC3HAV1 (GeneID 56829) | -0.451 | 2.2 | -0.574 | -0.508 |
| CYRIA (GeneID 81553) | 0.755 | 1.91 | 0.606 | 0.651 |
